Reference: PMC5216983
Results are given in words; binding and its absence hold for the method and conditions named. Binding seen in cells or lysates may run through a third protein. Some results given as binding are weak or reduced against the parent protein; the word gives no strength.

Sequences of proteins named here, by UniProt entry; tags and fusion partners are left off. Residues count along the entry.
UniProt P05622, residues 32-1098: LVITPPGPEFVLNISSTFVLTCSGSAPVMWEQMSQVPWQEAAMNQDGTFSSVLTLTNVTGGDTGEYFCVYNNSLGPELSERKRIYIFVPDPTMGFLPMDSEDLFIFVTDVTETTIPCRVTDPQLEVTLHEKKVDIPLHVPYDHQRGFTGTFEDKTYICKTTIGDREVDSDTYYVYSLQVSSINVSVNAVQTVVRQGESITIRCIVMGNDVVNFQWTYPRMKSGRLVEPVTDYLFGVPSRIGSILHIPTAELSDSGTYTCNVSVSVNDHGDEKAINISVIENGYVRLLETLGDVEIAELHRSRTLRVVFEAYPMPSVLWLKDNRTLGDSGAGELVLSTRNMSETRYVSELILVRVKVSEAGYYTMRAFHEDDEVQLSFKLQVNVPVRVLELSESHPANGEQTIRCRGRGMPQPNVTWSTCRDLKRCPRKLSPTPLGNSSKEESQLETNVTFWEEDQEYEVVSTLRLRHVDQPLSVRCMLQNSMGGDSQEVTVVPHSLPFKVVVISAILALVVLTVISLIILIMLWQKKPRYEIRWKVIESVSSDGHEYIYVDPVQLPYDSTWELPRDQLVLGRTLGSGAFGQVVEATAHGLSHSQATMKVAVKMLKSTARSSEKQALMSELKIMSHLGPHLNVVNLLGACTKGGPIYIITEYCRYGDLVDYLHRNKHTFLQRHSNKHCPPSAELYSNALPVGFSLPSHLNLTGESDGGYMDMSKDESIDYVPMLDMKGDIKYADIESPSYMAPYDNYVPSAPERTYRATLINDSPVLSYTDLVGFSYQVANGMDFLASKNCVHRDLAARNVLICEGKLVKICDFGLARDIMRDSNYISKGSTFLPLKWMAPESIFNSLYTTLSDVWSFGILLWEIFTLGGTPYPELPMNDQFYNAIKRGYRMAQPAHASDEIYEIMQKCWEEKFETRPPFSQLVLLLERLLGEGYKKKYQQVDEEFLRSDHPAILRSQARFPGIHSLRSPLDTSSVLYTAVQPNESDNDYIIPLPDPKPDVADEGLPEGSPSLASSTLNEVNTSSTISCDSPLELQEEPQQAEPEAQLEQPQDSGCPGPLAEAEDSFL
UniProt P34152: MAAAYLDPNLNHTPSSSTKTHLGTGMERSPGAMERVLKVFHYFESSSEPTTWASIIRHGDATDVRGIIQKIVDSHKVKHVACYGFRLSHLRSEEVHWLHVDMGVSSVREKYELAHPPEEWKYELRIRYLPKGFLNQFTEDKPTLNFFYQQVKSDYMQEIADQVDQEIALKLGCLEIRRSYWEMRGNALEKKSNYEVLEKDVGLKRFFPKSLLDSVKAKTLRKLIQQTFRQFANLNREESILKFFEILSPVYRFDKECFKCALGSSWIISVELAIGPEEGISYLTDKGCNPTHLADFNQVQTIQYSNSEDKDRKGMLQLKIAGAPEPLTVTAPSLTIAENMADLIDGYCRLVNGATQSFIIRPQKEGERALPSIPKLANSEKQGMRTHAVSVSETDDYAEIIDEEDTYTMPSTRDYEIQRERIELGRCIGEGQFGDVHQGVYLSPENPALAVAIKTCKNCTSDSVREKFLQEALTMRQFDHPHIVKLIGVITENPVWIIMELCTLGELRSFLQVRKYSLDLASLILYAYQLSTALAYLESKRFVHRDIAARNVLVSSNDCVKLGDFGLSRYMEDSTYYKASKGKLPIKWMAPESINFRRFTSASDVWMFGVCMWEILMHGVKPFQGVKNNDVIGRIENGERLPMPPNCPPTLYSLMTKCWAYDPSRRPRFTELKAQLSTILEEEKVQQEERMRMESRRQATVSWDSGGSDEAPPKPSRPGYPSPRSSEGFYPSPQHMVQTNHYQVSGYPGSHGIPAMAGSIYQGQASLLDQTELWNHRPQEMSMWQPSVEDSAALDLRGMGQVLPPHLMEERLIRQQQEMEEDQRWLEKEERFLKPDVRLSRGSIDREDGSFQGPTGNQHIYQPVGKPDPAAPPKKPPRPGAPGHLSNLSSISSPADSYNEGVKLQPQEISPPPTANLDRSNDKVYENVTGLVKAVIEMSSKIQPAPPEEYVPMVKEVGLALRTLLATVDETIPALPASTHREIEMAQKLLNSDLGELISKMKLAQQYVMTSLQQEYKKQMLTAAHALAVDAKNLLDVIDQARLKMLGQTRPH

Target: PDGFRβ (mouse (endogenous in NIH3T3)) (UniProt P05622)
Assay: co-IP; PDGFRβ immunoprecipitated with an anti-PDGFRβ antibody from lysates of NIH3T3^COL1A1/PDGFB cells, control or treated with roneparstat (1 mg/ml, 24 h); western blot with anti-phosphotyrosine, anti-phospho-FAK and anti-FAK antibodies

- binding: binds
Substance: focal adhesion kinase (FAK) (from UniProt P34152 1-1052) (enzyme)
